{"source": "paper PMC4873810", "key": {"[1]": {"target": "T1, glypican 6 (Gpc6) HSPG, HA-tagged (UniProt Q9Y625)", "T1 sequence (chain, heparan sulfate chains (HSPG))": "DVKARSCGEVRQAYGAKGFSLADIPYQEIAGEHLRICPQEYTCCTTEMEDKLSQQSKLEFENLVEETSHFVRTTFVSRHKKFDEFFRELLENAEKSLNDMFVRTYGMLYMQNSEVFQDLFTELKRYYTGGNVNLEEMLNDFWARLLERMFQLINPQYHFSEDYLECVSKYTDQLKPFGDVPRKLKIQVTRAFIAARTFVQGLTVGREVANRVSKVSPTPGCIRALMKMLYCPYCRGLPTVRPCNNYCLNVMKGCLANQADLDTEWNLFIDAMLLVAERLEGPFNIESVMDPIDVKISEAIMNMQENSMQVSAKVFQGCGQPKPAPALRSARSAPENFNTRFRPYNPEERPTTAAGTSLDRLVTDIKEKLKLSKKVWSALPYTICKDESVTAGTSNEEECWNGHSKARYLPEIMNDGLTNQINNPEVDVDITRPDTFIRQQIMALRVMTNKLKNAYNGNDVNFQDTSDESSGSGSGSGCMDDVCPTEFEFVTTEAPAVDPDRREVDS", "experiment": "proximity ligation; Duolink in situ PLA on transfected Capan1, B16F10 and Panc1 cells, fixed in 4% PFA, non-permeabilised; primary antibodies α-FLAG (Scube2) and α-HA (Gpc6)"}, "[2]": {"target": "T1, glypican 6 (Gpc6) HSPG, HA-tagged", "experiment": "proximity ligation; Duolink in situ PLA on transfected Bosc23 cells (for Scube2/Gpc6 also HeLa and MiaPaca2), fixed in 4% PFA, non-permeabilised; primary antibodies α-FLAG (Scube2), α-HA (Gpc6), α-Shh; 40 nm upper limit"}, "[3]": {"target": "T1, glypican 6 (Gpc6) HSPG, HA-tagged", "experiment": "proximity ligation; Duolink in situ PLA on transfected Capan1, B16F10 and Panc1 cells, fixed in 4% PFA, non-permeabilised; primary antibodies α-FLAG (Scube2) and α-HA (Gpc6)", "remark": "listed apart in the source"}}, "note": "Results are given in words; binding and its absence hold for the method and conditions named. Binding seen in cells or lysates may run through a third protein. Some entries that bind do so weakly or less than the wild type. Where a sequence is shown, tags or fusion partners need not be part of it."}
{"binder": "Scube2 (signal peptide, CUB domain, epidermal growth factor (EGF)-like protein 2), full-length, FLAG-tagged (protein, UniProt Q9NQ36 32-999) VPPGRGRAAGPQEDVDECAQGLDDCHADALCQNTPTSYKCSCKPGYQGEGRQCEDIDECGNELNGGCVHDCLNIPGNYRCTCFDGFMLAHDGHNCLDVDECLENNGGCQHTCVNVMGSYECCCKEGFFLSDNQHTCIHRSEEGLSCMNKDHGCSHICKEAPRGSVACECRPGFELAKNQRDCILTCNHGNGGCQHSCDDTADGPECSCHPQYKMHTDGRSCLEREDTVLEVTESNTTSVVDGDKRVKRRLLMETCAVNNGGCDRTCKDTSTGVHCSCPVGFTLQLDGKTCKDIDECQTRNGGCDHFCKNIVGSFDCGCKKGFKLLTDEKSCQDVDECSLDRTCDHSCINHPGTFACACNRGYTLYGFTHCGDTNECSINNGGCQQVCVNTVGSYECQCHPGYKLHWNKKDCVEVKGLLPTSVSPRVSLHCGKSGGGDGCFLRCHSGIHLSSDVTTIRTSVTFKLNEGKCSLKNAELFPEGLRPALPEKHSSVKESFRYVNLTCSSGKQVPGAPGRPSTPKEMFITVEFELETNQKEVTASCDLSCIVKRTEKRLRKAIRTLRKAVHREQFHLQLSGMNLDVAKKPPRTSERQAESCGVGQGHAENQCVSCRAGTYYDGARERCILCPNGTFQNEEGQMTCEPCPRPGNSGALKTPEAWNMSECGGLCQPGEYSADGFAPCQLCALGTFQPEAGRTSCFPCGGGLATKHQGATSFQDCETRVQCSPGHFYNTTTHRCIRCPVGTYQPEFGKNNCVSCPGNTTTDFDGSTNITQCKNRRCGGELGDFTGYIESPNYPGNYPANTECTWTINPPPKRRILIVVPEIFLPIEDDCGDYLVMRKTSSSNSVTTYETCQTYERPIAFTSRSKKLWIQFKSNEGNSARGFQVPYVTYDEDYQELIEDIVRDGRLYASENHQEILKDKKLIKALFDVLAHPQNYFKYTAQESREMFPRSFIRLLRSKVSRFLRPYK", "values": [{"measurement": "binding", "setting": "[1]", "result": "binds weakly"}, {"measurement": "binding", "setting": "[2]", "result": "binds"}, {"measurement": "binding", "setting": "[3]", "result": "no binding (condition: in Capan1, B16F10 and Panc1 cells)"}]}
